# Screening data, single-dose tests

Mtb cholesterol medium: 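Phenotypic screen: M. tuberculosis growth, cholesterol and DPPC medium, 4 days; the read-out is not stated. Tested at 50 µM. The record gives no direction; compounds that gave an IC50 in retests scored well above the rest, so higher reads as more growth inhibition. About 69,000 compounds were tested under these conditions; 0.54% (about 370) showed 50% or more at least once.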
Mtb glucose medium: 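Whole-cell growth test on Mycobacterium tuberculosis, read after 3 days in glucose-containing 7H9 medium; the read-out is not stated. Concentration: 50 µM. The record gives no direction; compounds that gave an IC50 in retests scored well above the rest, so higher reads as more growth inhibition. About 69,000 compounds were tested under these conditions; 1.1% (about 760) showed 50% or more at least once.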

Each number is a percent effect as filed.
The controls that fix the scale are not given in the record; negative values are as filed.
This is an unselected part of the compounds tested.
Two or more numbers in one place are separate tests of the same structure; such repeats can differ widely.

Cc1nn(CC(=O)N2CCN(c3cnccn3)CC2)c(C)c1Cl gave Mtb cholesterol medium: 4.677%; Mtb glucose medium: 18.36%. O=C(NCc1cccc(F)c1)N1CCc2ncnc(NC3CC3)c2CC1 gave Mtb cholesterol medium: -2.73%; Mtb glucose medium: 24.42%. Result for COCCOc1ccnc(-c2noc([C@@H]3CCCN3C)n2)c1 was Mtb cholesterol medium: -22.33%; Mtb glucose medium: -30.44% and -3.404%. CCOCC1CN(c2ccncn2)Cc2cnn(CC3CC3)c21.O=C(O)C(F)(F)F.O=C(O)C(F)(F)F (stereo not shown) read Mtb cholesterol medium: -13.39%; Mtb glucose medium: -18.69%. For Cc1c(C2CC(=O)Nc3c2cnn3C(C)(C)C)cnn1C (stereo not shown) the result was Mtb cholesterol medium: -5.73%; Mtb glucose medium: -19.8%. O=C(c1ncc(F)cc1F)N1CCC(c2ncc[nH]2)CC1 gave Mtb cholesterol medium: -3.938%; Mtb glucose medium: 5.791% and -0.7511%. COCC1CCN(C(C(=O)O)c2c(F)cccc2OC(C)C)CC1 (stereo not shown) read Mtb cholesterol medium: -4.843%; Mtb glucose medium: -4.694%.

Cc1nc(-c2cccnc2)ncc1C(=O)N1CCC(c2ncc[nH]2)CC1 gave Mtb cholesterol medium: -6.102%; Mtb glucose medium: -2.881%. For Cc1nc(CN(C)CC2CCCN(CCc3ccc(Cl)cc3)C2)n(C)n1 (stereo not shown) the result was Mtb cholesterol medium: -23.77%; Mtb glucose medium: -1.369%. CC(C(=O)NCc1ccc(N2CCCCC2)nc1)n1cncn1 (stereo not shown) read Mtb cholesterol medium: 9.916%; Mtb glucose medium: -0.6883% and -1.549%. O=C(O)C(F)(F)F.O=C(O)C(F)(F)F.[H][C@@]12CCN(Cc3ccncc3)[C@]1([H])CC[C@@H](C(=O)NCC1CCOCC1)O2 read Mtb cholesterol medium: -5.177%; Mtb glucose medium: -13.3%. Cc1cnn(CC(=O)N2CCC3(CCC(=O)N(CCCO)C3)CC2)c1 read Mtb cholesterol medium: 14.15%; Mtb glucose medium: 12.14%. With CNC(=O)c1nc(Cn2ncc3ccccc3c2=O)no1 the screen gave Mtb cholesterol medium: 0.1241%; Mtb glucose medium: 14.74%. With O=C(O)C(F)(F)F.[H][C@@]12CCN(S(C)(=O)=O)C[C@]1(C(=O)NCc1ccccn1)CCO2 the screen gave Mtb cholesterol medium: -4.436%; Mtb glucose medium: 9.734%.

With c1csc(-c2cc(CN3CCN(c4nccs4)CC3)no2)c1 the screen gave Mtb cholesterol medium: 11.86%; Mtb glucose medium: 21.02%. Result for CCNC(=O)CN(CC)C(=O)c1cccc(Nc2cnn(C)c2)c1 was Mtb cholesterol medium: 2.739% and -8.667%; Mtb glucose medium: 18.48%. With O=C(O)C(F)(F)F.[H][C@@]12CCN(c3nncs3)[C@@]1([H])CCN2C(=O)NC1CCCC1 the screen gave Mtb cholesterol medium: -13.06%; Mtb glucose medium: -16.48% and -3.97%. O=C1c2cnc(N3CCCC3)nc2CN1CCc1ccc(Cl)cc1 gave Mtb cholesterol medium: 6.011%; Mtb glucose medium: 7.512%. [H][C@]12CCCN(S(=O)(=O)c3ccc(Cl)s3)[C@@]1([H])CN(C(C)=O)C2 read Mtb cholesterol medium: -47.3%; Mtb glucose medium: -8.661%. For Cc1nn(C)c(Cl)c1CNCc1ccc(OCC(N)=O)cc1 the result was Mtb cholesterol medium: 1.694%; Mtb glucose medium: 8.694%. Cc1cnc(C)c(N2CCN(Cc3ccc(C)c(C)c3)CC2)n1 gave Mtb cholesterol medium: 0.09384%; Mtb glucose medium: 26.26%.

Result for Cc1cc(NC(=O)N2CCOCC2)nn1-c1cccc(Cl)c1 was Mtb cholesterol medium: -1.301%; Mtb glucose medium: 11.17% and 5.599%. Result for CCc1ncncc1C(=O)N1CCOC(c2nc(C)n[nH]2)C1 (stereo not shown) was Mtb cholesterol medium: 4.452%; Mtb glucose medium: 5.898%. O=C(O)C(F)(F)F.O=C(O)C(F)(F)F.[H][C@@]12CC(=O)N(Cc3cccc(C)n3)[C@@]1([H])CCN2Cc1ccc(CC)o1 gave Mtb cholesterol medium: -14.49% and -4.69%; Mtb glucose medium: -12.31%. For CC(C)N1CCC(Cc2cc(-c3ccccc3C(=O)O)ncn2)CC1 the result was Mtb cholesterol medium: -15.69%; Mtb glucose medium: 1.213%. With CS(=O)(=O)NCC(=O)NC1CCc2nccn2C1 (stereo not shown) the screen gave Mtb cholesterol medium: -2.509%; Mtb glucose medium: -10.3%. CSCC[C@H](NC(C)=O)c1nc(Cc2ccccc2)n[nH]1 gave Mtb cholesterol medium: -0.3743%; Mtb glucose medium: -2.569%. For CC(C)C(Sc1nnnn1C1CC1)C(=O)NCc1ccccc1 (stereo not shown) the result was Mtb cholesterol medium: -4.446%; Mtb glucose medium: 10.92%.

O=C(O)C(F)(F)F.[H][C@@]12CCN(CCc3ccccc3)C[C@@]1([H])[C@H](C(=O)NC1CCC1)CCO2 gave Mtb cholesterol medium: -13.75% and 1.168%; Mtb glucose medium: 10.61%. Result for Cc1cc2c(=O)n3c(nc2s1)CCN(C(=O)c1nn(C)cc1Cl)CC3 was Mtb cholesterol medium: 5.972%; Mtb glucose medium: 10.5%. CCc1cnc(CN(C(C)=O)C2CCN(CCN3CCCCC3)C2)o1 (stereo not shown) read Mtb cholesterol medium: 7.937%; Mtb glucose medium: -6.814%. For CSCc1nc(C(C)(C)NC(=O)OC(C)(C)C)no1 the result was Mtb cholesterol medium: 6.272%; Mtb glucose medium: 7.122%. [H][C@@]12CN(c3ncccn3)C[C@]1([H])N(CCCc1ccc(F)cc1)C(=O)O2 read Mtb cholesterol medium: 25.62%; Mtb glucose medium: 4.386%. For CCS(=O)(=O)c1ncc(CN(C)Cc2cccc(OC)c2)n1CCOC the result was Mtb cholesterol medium: 8.972% and -8.176%; Mtb glucose medium: 2.107%. For Cc1ccc(NC(=O)CCC2CC2)cc1N1CCOC1=O the result was Mtb cholesterol medium: 6.638%; Mtb glucose medium: 16.04%.

O=C(Cn1cccn1)N1CCC(Oc2cnccn2)CC1 read Mtb cholesterol medium: 16.48%; Mtb glucose medium: -1.929% and 31.35%. For CC(CC(=O)Nc1ncn(CC(=O)NCc2ccccc2)n1)C1CC1 (stereo not shown) the result was Mtb cholesterol medium: 8.197%; Mtb glucose medium: -9.909%. CC(C)c1noc(C2CCN(C(=O)c3cccs3)CC2)n1 gave Mtb cholesterol medium: -6.798%; Mtb glucose medium: 26.97%. Result for CCc1cc(C(C)Nc2nc(-c3cccnc3)nc3c2CNC3)on1 (stereo not shown) was Mtb cholesterol medium: -4.386%; Mtb glucose medium: -1.261%. Result for CSCC[C@H](NC(=O)CCn1ccc2c(Br)cccc21)C(=O)O was Mtb cholesterol medium: -2.206%; Mtb glucose medium: -13.42%. O=C(O)C(F)(F)F.[H][C@@]12CN(C(=O)C3CCOCC3)C[C@]1([H])OCCN2Cc1c(C)noc1C gave Mtb cholesterol medium: -12.39%; Mtb glucose medium: -10.5%. COc1ccc(Cl)cc1CN(C)C(=O)CN1C(=O)OC[C@@H]1C(C)C read Mtb cholesterol medium: 7.754%; Mtb glucose medium: 25.95%.

Result for Cc1cc(C(=O)NCC2Cn3nnc(C)c3CO2)no1 (stereo not shown) was Mtb cholesterol medium: 0.5114%; Mtb glucose medium: 109.5% and 7.13%. With CCc1csc(C2CCCN(C(=O)COc3cc(C)on3)C2)n1 (stereo not shown) the screen gave Mtb cholesterol medium: 11.75%; Mtb glucose medium: 19.5%.

The last 4 entries again:

{"smiles": "O=C(O)C(F)(F)F.[H][C@@]12CN(C(=O)C3CCOCC3)C[C@]1([H])OCCN2Cc1c(C)noc1C", "Mtb cholesterol medium": -12.39, "Mtb glucose medium": -10.5}
{"smiles": "COc1ccc(Cl)cc1CN(C)C(=O)CN1C(=O)OC[C@@H]1C(C)C", "Mtb cholesterol medium": 7.754, "Mtb glucose medium": 25.95}
{"smiles": "Cc1cc(C(=O)NCC2Cn3nnc(C)c3CO2)no1", "stereo": "stereo not shown", "Mtb cholesterol medium": 0.5114, "Mtb glucose medium": "109.5 and 7.13"}
{"smiles": "CCc1csc(C2CCCN(C(=O)COc3cc(C)on3)C2)n1", "stereo": "stereo not shown", "Mtb cholesterol medium": 11.75, "Mtb glucose medium": 19.5}

Data taken from ChEMBL document CHEMBL3988442, “University of Dundee, Small-Polar-MMV Screening Library” (2021).